Holding throughout (assay): co-IP; agarose GFP-traps (Chromotek) on at least 1 mg of pooled soluble nuclear and chromatin-bound fractions of worms; buffer D (20% glycerol, 0.2 mM EDTA pH 8, 150 mM KCl, 20 mM Hepes-KOH pH 7.9, 0.2% Triton X-100), overnight at 4°C; western blot with anti-HA
In general terms: In western blotting, separated proteins are transferred to a membrane and probed.

For one assay, the target named is T1, GFP::BRC-1 (C. elegans) (UniProt B6VQ60).
T1 sequence: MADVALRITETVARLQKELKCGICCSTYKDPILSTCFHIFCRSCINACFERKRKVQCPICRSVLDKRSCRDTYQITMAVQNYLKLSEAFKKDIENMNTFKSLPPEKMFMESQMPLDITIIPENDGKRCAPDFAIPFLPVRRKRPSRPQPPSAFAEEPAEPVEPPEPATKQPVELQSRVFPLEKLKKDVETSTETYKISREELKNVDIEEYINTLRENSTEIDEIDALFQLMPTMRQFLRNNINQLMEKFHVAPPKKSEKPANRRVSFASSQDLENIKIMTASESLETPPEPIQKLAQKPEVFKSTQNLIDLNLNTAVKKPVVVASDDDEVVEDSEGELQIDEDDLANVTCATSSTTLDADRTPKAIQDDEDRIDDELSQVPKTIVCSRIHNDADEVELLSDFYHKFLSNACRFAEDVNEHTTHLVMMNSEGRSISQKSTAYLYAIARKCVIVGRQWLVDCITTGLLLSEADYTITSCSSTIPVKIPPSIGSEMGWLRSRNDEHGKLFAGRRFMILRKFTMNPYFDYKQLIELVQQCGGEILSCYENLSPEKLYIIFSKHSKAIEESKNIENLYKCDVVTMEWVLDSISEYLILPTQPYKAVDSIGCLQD

The target of a further assay is T2, GFP::MSH-5 (C. elegans) (UniProt Q19272).
T2 sequence: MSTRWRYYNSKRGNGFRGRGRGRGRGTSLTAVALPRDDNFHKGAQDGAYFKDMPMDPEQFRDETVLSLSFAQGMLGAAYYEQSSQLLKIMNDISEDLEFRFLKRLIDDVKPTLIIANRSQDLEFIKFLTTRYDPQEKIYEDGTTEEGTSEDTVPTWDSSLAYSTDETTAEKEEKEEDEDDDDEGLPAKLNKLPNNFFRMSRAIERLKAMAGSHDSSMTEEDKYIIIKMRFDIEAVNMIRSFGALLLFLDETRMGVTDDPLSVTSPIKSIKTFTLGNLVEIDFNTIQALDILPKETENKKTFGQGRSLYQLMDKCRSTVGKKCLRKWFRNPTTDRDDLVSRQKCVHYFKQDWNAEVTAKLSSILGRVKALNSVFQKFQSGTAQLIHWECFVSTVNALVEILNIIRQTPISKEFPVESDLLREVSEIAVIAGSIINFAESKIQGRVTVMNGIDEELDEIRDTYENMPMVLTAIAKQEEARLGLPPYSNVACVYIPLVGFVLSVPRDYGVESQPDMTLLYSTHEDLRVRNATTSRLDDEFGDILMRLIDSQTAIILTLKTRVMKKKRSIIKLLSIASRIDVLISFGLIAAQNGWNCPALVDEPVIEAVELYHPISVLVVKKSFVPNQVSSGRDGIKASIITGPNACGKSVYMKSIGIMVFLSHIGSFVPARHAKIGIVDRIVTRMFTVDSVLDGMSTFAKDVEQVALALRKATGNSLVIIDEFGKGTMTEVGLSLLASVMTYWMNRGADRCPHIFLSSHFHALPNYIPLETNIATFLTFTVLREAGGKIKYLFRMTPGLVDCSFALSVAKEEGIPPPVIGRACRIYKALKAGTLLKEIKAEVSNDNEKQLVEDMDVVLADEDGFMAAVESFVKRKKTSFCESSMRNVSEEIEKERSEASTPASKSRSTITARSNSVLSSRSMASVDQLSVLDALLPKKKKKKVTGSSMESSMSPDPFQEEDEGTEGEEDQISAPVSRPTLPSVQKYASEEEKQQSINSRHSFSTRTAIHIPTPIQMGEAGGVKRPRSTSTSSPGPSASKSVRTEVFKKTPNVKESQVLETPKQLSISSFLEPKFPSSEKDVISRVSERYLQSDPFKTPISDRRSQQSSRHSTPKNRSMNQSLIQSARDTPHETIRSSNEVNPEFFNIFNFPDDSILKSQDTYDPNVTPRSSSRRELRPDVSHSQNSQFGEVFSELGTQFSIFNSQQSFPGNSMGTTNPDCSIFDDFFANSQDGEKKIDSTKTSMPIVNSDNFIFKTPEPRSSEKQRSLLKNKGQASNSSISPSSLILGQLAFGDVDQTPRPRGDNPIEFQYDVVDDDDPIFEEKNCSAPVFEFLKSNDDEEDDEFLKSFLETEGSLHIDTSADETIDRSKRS

For another assay, the target named is T3, GFP::SYP-3 (C. elegans) (UniProt O62238).
T3 sequence: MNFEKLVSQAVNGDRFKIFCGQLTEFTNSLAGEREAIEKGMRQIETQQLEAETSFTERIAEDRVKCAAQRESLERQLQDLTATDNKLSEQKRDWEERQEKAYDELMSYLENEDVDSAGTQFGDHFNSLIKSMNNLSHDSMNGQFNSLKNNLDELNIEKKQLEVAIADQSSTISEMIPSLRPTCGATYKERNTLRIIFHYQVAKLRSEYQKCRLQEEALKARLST

The values that follow come from paper PMC6211622.

These are yes or no findings as the source states them, for the method shown. Binding seen in cells or lysates may run through a third protein. Some results given as binding are weak or reduced against the parent protein; the word gives no strength. Where a sequence is shown, tags or fusion partners need not be part of it.

B1: MSH-5::2xHA (protein, UniProt Q19272 1-1369)
chain: MSTRWRYYNSKRGNGFRGRGRGRGRGTSLTAVALPRDDNFHKGAQDGAYFKDMPMDPEQFRDETVLSLSFAQGMLGAAYYEQSSQLLKIMNDISEDLEFRFLKRLIDDVKPTLIIANRSQDLEFIKFLTTRYDPQEKIYEDGTTEEGTSEDTVPTWDSSLAYSTDETTAEKEEKEEDEDDDDEGLPAKLNKLPNNFFRMSRAIERLKAMAGSHDSSMTEEDKYIIIKMRFDIEAVNMIRSFGALLLFLDETRMGVTDDPLSVTSPIKSIKTFTLGNLVEIDFNTIQALDILPKETENKKTFGQGRSLYQLMDKCRSTVGKKCLRKWFRNPTTDRDDLVSRQKCVHYFKQDWNAEVTAKLSSILGRVKALNSVFQKFQSGTAQLIHWECFVSTVNALVEILNIIRQTPISKEFPVESDLLREVSEIAVIAGSIINFAESKIQGRVTVMNGIDEELDEIRDTYENMPMVLTAIAKQEEARLGLPPYSNVACVYIPLVGFVLSVPRDYGVESQPDMTLLYSTHEDLRVRNATTSRLDDEFGDILMRLIDSQTAIILTLKTRVMKKKRSIIKLLSIASRIDVLISFGLIAAQNGWNCPALVDEPVIEAVELYHPISVLVVKKSFVPNQVSSGRDGIKASIITGPNACGKSVYMKSIGIMVFLSHIGSFVPARHAKIGIVDRIVTRMFTVDSVLDGMSTFAKDVEQVALALRKATGNSLVIIDEFGKGTMTEVGLSLLASVMTYWMNRGADRCPHIFLSSHFHALPNYIPLETNIATFLTFTVLREAGGKIKYLFRMTPGLVDCSFALSVAKEEGIPPPVIGRACRIYKALKAGTLLKEIKAEVSNDNEKQLVEDMDVVLADEDGFMAAVESFVKRKKTSFCESSMRNVSEEIEKERSEASTPASKSRSTITARSNSVLSSRSMASVDQLSVLDALLPKKKKKKVTGSSMESSMSPDPFQEEDEGTEGEEDQISAPVSRPTLPSVQKYASEEEKQQSINSRHSFSTRTAIHIPTPIQMGEAGGVKRPRSTSTSSPGPSASKSVRTEVFKKTPNVKESQVLETPKQLSISSFLEPKFPSSEKDVISRVSERYLQSDPFKTPISDRRSQQSSRHSTPKNRSMNQSLIQSARDTPHETIRSSNEVNPEFFNIFNFPDDSILKSQDTYDPNVTPRSSSRRELRPDVSHSQNSQFGEVFSELGTQFSIFNSQQSFPGNSMGTTNPDCSIFDDFFANSQDGEKKIDSTKTSMPIVNSDNFIFKTPEPRSSEKQRSLLKNKGQASNSSISPSSLILGQLAFGDVDQTPRPRGDNPIEFQYDVVDDDDPIFEEKNCSAPVFEFLKSNDDEEDDEFLKSFLETEGSLHIDTSADETIDRSKRS
For the molecule B1, the binding entry with GFP::BRC-1 (C. elegans) is given as “binds”.

B2: BRD-1::HA (protein, UniProt Q21209 1-702)
chain: MFENTKKALETFRTAIECVKCKKPRGDLQYLGSSCKHAYCWECIATFQQKPSGKRSSVARHMCPSCAFPLDTSKITEAHMLKTCFDTLSELNDLLQKVGTTSLTQAEFACTQNIFNKEKTPADAVEKFLETQAHMPDEMGQLGEEDDDLMCKDENRENSNSPELDIFHDYSKEASPTRNSTKRPSTVSVHERKPKRSSILKTSVKNEPAAPVVDLFASQVPQRTHQNDLLTPFIERRSTAPAATGVATYAQAFGSSSNPVKAEIIEEDIFSKAIPLTKRQASMSASAKKQPKLEPEEPEEVPSTSRSRKNSIKSDKIERRSQSPMSFGEKSMSVKSEQRRSSYGTRRGEAVLVNSIRNNRIPQLRSAVEAGTCVNEKEDGKTPLYVAVENSSLEAVKILVEAGAVINASCGSTLETTLHEAVRRQNTQIVEYLLSKGASIKIRNIAGKTVEEMAKSDPKIRKIIEKFKTEQRVLQPVVAPPKSRLHFVQLIDEKMLTESEKRKLPGKINIVPADMDSPTHVVVTVDLKTRVLNINKEHIGEILKAIIKSGMIVSRDWLRACIIDPSKVDDDRSYMVQKVRWMEGEVFENTIEQWKKTITKMQPKLFAGCKFFIPKPKYNFLDRPALFEIIRSAGGQAAAREPIIDEKDPPPYHNANLKPNFVLYSLTHDIGDKFRDCTKYNLVSEQWLIEAILGCSITTPPH
Regarding B2, the binding entry with GFP::MSH-5 (C. elegans) and with GFP::SYP-3 (C. elegans) was “binds” in each case.

B3: BRC-1::HA (protein, UniProt B6VQ60 1-609)
chain: MADVALRITETVARLQKELKCGICCSTYKDPILSTCFHIFCRSCINACFERKRKVQCPICRSVLDKRSCRDTYQITMAVQNYLKLSEAFKKDIENMNTFKSLPPEKMFMESQMPLDITIIPENDGKRCAPDFAIPFLPVRRKRPSRPQPPSAFAEEPAEPVEPPEPATKQPVELQSRVFPLEKLKKDVETSTETYKISREELKNVDIEEYINTLRENSTEIDEIDALFQLMPTMRQFLRNNINQLMEKFHVAPPKKSEKPANRRVSFASSQDLENIKIMTASESLETPPEPIQKLAQKPEVFKSTQNLIDLNLNTAVKKPVVVASDDDEVVEDSEGELQIDEDDLANVTCATSSTTLDADRTPKAIQDDEDRIDDELSQVPKTIVCSRIHNDADEVELLSDFYHKFLSNACRFAEDVNEHTTHLVMMNSEGRSISQKSTAYLYAIARKCVIVGRQWLVDCITTGLLLSEADYTITSCSSTIPVKIPPSIGSEMGWLRSRNDEHGKLFAGRRFMILRKFTMNPYFDYKQLIELVQQCGGEILSCYENLSPEKLYIIFSKHSKAIEESKNIENLYKCDVVTMEWVLDSISEYLILPTQPYKAVDSIGCLQD
For the molecule B3, the binding result in the assay with GFP::MSH-5 (C. elegans) and in the assay with GFP::SYP-3 (C. elegans) was “binds” throughout.
